Among the data in doi:10.1101/2023.09.29.560207 (bioRxiv, 2023) are binding values, retold here.

Protein sequences, listed by entry. Tags and fused reporters are not part of them. Lines headed by an entry give the natural chain unless they say otherwise; changes in a name come on top.
UniProt Q13148: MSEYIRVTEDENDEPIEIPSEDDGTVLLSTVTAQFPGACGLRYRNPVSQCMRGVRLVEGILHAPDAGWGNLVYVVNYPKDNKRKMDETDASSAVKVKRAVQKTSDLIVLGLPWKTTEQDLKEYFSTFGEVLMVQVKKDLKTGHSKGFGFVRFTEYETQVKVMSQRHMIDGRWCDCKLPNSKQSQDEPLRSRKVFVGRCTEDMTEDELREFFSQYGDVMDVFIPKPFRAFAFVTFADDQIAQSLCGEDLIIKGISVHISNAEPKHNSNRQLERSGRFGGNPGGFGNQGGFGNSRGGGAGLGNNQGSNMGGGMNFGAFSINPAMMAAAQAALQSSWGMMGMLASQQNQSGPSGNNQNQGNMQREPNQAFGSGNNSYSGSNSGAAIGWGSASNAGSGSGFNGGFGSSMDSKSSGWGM

Results are given in words; binding and its absence hold for the method and conditions named. For part of these data: In cells and extracts the contact can be indirect. Some results given as binding are weak or reduced against the parent protein; the word gives no strength. For part of these data: Where a sequence is shown, tags or fusion partners need not be part of it.

One assay concerns the target T1, His-MBP-RGNEF^1–275 (human, UniProt Q8N1W1 1-275).
T1 sequence (looked up): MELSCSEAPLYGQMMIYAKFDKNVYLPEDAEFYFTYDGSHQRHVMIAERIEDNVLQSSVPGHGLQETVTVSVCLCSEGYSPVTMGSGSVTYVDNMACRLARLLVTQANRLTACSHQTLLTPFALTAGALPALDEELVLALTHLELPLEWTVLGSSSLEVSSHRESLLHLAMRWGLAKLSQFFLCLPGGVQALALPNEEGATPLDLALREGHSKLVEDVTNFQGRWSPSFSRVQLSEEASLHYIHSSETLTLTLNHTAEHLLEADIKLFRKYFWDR
The experiment in a line: SPR. (In SPR one partner is held on a chip, and binding of the other changes the refractive index at the surface.)

The target in assay [1] is T2, NF242 with the small subunit of luciferase (SmBiT) fused to its carboxy-terminal end (human) (UniProt Q8N1W1).
T2 sequence: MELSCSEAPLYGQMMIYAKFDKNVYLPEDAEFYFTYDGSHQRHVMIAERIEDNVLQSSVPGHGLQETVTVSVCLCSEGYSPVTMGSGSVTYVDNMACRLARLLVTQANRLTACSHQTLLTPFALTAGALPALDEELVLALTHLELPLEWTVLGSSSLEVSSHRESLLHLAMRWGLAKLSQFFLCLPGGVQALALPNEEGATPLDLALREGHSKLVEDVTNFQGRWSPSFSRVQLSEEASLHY
The experiment in a line: split reporter.

In assay [2] the target is T3, NF242-Δ77-79_P81G (human) (UniProt Q8N1W1).
T3 sequence: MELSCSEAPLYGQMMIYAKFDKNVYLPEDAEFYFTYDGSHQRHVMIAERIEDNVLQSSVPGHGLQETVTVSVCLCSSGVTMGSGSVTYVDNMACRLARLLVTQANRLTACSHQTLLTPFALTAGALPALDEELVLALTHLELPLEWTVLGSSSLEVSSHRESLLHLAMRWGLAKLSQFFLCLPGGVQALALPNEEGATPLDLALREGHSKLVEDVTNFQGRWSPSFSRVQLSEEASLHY
The experiment in a line: split reporter.

For “His-RRM-2 (from UniProt Q13148 177-262) (domain or fragment)”, in the assay with His-MBP-RGNEF^1–275, the binding entry is “binds weakly”.
For the substance “His-TDP-43^1–102 (from UniProt Q13148 1-102) (domain or fragment)”, the binding entry with His-MBP-RGNEF^1–275 was “no binding”.
Regarding “TDP-43^1–192 (NanoBiT construct) (from UniProt Q13148 1-192) (domain or fragment)”, the binding entry in assay [1] was “binds”.
On to “TDP-43^1–274 (NanoBiT construct) (from UniProt Q13148 1-274) (domain or fragment)”, for which the binding entry in assay [1] is listed as “binds”.
Still for that read-out and setting: next, “TDP-43^1–366 (NanoBiT construct) (from UniProt Q13148 1-366) (domain or fragment)”: “binds”.
In the case of “TDP-43^wt with the luciferase subunit fused to its carboxy-terminal end (from UniProt Q13148 1-414)”, the binding entry in assay [2] is reported as “no binding”.
